According to paper doi:10.1101/2024.03.29.587195 (bioRxiv, 2024):
No constants are given. Whether binding was seen depends on the method and setting. Binding seen in cells or lysates may run through a third protein. These calls come from enrichment with a bait or labelling near it, and not all partners need be listed. No binding means not detected with the bait.

Amino acid sequences for entries named in this document (tags omitted).
UniProt P9WNU7, whole entry: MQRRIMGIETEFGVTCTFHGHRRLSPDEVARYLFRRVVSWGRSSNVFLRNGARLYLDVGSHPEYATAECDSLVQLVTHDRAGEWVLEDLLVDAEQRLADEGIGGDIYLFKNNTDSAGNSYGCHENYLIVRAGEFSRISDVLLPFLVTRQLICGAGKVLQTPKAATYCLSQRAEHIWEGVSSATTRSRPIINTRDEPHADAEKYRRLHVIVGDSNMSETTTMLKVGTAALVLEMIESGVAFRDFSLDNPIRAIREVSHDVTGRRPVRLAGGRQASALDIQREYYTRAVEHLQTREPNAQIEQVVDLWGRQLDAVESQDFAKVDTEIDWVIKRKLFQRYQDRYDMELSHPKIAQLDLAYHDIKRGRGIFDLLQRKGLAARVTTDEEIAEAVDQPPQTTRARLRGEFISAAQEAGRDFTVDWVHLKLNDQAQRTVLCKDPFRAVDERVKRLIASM

Molecular target: PafATAP (carboxyl-terminally epitope-tagged proteasome accessory factor A) (Mycobacterium tuberculosis) (UniProt P9WNU7)
Experiment: affinity purification with mass spectrometry

B1: CoaXMtb, untagged, recombinant (cryo-EM sample) (natural protein)
chain: MLLAIDVRNTHTVVGLLSGMKEHAKVVQQWRIRTESEVTADELALTIDGLIGEDSERLTGTAALSTVPSVLHEVRIMLDQYWPSVPHVLIEPGVRTGIPLLVDNPKEVGADRIVNCLAAYDRFRKAAIVVDFGSSICVDVVSAKGEFLGGAIAPGVQVSSDAAAARSAALRRVELARPRSVVGKNTVECMQAGAVFGFAGLVDGLVGRIREDVSGFSVDHDVAIVATGHTAPLLLPELHTVDHYDQHLTLQGLRLVFERNLEVQRGRLKTAR
B1 was tested, and the binding was “no binding”.
